Screen size: about 360,000 compounds; about 7,500 (2.1%) were called active. The inconclusive results got no clear call from the source; some entries with a clear call stand among them for comparison. Calls come from the whole dose curve; as a rule, active = well fitted inhibition curve with a large enough effect; inconclusive = small, poorly fitted or top-dose-only effect, or effect the other way; inactive = flat fitted curve, though single readings scatter. Potencies of inconclusive entries are doubtful fits and often do not repeat.
assay: Nrf2 qHTS screen for inhibitors; details: A549 ARE-Fluc reporter, luciferase luminescence, 18-24 h; activity change, negative = inhibition: at 46 µM (top of the series); note: nearly all actives have a fitted effect of over 60% in size
How it was run: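 Two sequential reads on A549 ARE_Fluc cells exposed to compound for 18-24 h: a CellTiter-Fluor fluorescence read for viability, then a luciferase luminescence read for Nrf2/ARE activity.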
% is set by controls: 0 for no effect and ±100 for the full control effect; potency is the fitted concentration of half-maximal effect.

With `O=C(N/N=C/c1ccco1)c1cc(=O)[nH]c2ccccc12` as the molecule, how does the activity change, negative = inhibition read?
Its activity change, negative = inhibition is inconclusive: 38.7% [activator].

For `CCOC(=O)c1cc(NC(=O)c2ccc(C)cc2)c(=O)oc1-c1ccccc1`, which Potency is on record?
Its Potency is inconclusive: 5.17 µM [falling, partial curve].

Which Potency does the source give for `O=C(Nc1ccncc1)c1cc(-c2ccccn2)nc2ccccc12` here?
Its Potency is inconclusive: 6.51 µM [activator, single point].

Which Potency does the source give for `O=C(Cc1cccc([N+](=O)[O-])c1)Nc1ccc(C(=O)N2CCOCC2)cc1` here?
The Potency was inconclusive: 9.2 µM [falling, partial curve].

For `Clc1cc(Cl)c2nc(N3CCCC3)sc2c1`, which Potency is on record?
The Potency was inconclusive: 9.2 µM [activator, partial curve, poor fit].

Which Potency does the source give for `O=C(O)CCCNS(=O)(=O)Cc1ccccc1` here?
The Potency was inconclusive: 29.1 µM [falling, partial curve, poor fit].

With `Nc1c(C(=O)NCCN2CCOCC2)c2nc3ccccc3nc2n1-c1ccccc1` as the molecule, how does the “activity change, negative = inhibition” value read?
The value was inactive: -17.5%.

Which Potency does the source give for `N/C(=N\OC(=O)c1ccc([N+](=O)[O-])cc1Cl)c1ccccn1` here?
The Potency was inconclusive: 20.6 µM [falling, partial curve, poor fit].

For `CC(=O)N1CCN(c2ccc(NC(=S)NC(=O)COc3ccc(C(C)(C)C)cc3)cc2)CC1`, which Potency is on record?
Its Potency is inconclusive: 29.1 µM [falling, single point].

With `CCN(Cc1nc(-c2ccc(OC)c(OC)c2)no1)C(=O)c1ccc2c(c1)OCO2` as the molecule, how does the Potency read?
Its Potency is inconclusive: 32.6 µM [falling, partial curve, poor fit].

With `COc1cc(OC)cc(C(=O)Nc2ccc(C(=O)Nc3ccccc3OC)cc2)c1` as the molecule, how does the Potency read?
Its Potency is inconclusive: 13 µM [falling, partial curve].

Which Potency does the source give for `O=C(Nc1nnc(S(=O)(=O)N2CCc3ccccc32)s1)c1cccc(Cl)c1` here?
Its Potency is inconclusive: 32.6 µM [activator, partial curve, poor fit].

With `Cc1oc(-c2ccc(Cl)cc2)nc1CN1CCCN(C(=O)c2ccco2)CC1` as the molecule, how does the Potency read?
Its Potency is inconclusive: 23.1 µM [falling, partial curve, poor fit].

Which Potency does the source give for `Cc1nc(Nc2ccccc2)[nH]c(=O)c1CCC(C)C` here?
Its Potency is inconclusive: 29.1 µM [falling, single point].

Which Potency does the source give for `Cc1ccccc1/C=N/Nc1nc2ccccc2[nH]1` here?
Its Potency is inconclusive: 18.4 µM [activator, partial curve].

Which Potency does the source give for `COc1ccc(NC(=O)C2CCCN(c3nnc(C)c4c(C)n(-c5ccccc5)nc34)C2)cc1Cl` (centres undefined) here?
Its Potency is inconclusive: 9.2 µM [falling, partial curve, poor fit].

With `Cc1cccc(CCN=c2c([N+](=O)[O-])nn(-c3ccccc3)n2O)c1` as the molecule, how does the Potency read?
Its Potency is inconclusive: 20.6 µM [falling, single point].

For `CCN(C(=O)C1CCCN(c2nc(-c3ccc(OC)cc3)no2)C1)c1ccccc1F` (centres undefined), which Potency is on record?
Its Potency is inconclusive: 29.1 µM [falling, single point].

With `COc1ccc(NS(=O)(=O)c2cccc(NC(=O)NC3CCCCC3)c2)cc1` as the molecule, how does the Potency read?
Its Potency is inconclusive: 18.4 µM [falling, single point].

For `Cc1cc(C)c(NC(=O)COC(=O)C23CC4CC(CC(O)(C4)C2)C3)c(Cl)c1`, which Potency is on record?
Its Potency is inconclusive: 4.61 µM [activator, partial curve, poor fit].

For `COCCOC(=O)c1c(-c2ccccc2)c(-c2ccccc2)nn(C)c1=O`, which “activity change, negative = inhibition” value is on record?
Its value is inactive: 4.1%.

Which Potency does the source give for `COc1ccc(NCCc2ccccn2)cc1` here?
Its Potency is inconclusive: 2.31 µM [activator, partial curve, poor fit].

Which “activity change, negative = inhibition” value does the source give for `CCc1ccccc1NC(=O)Cn1c(=O)n(Cc2ccc(OC)cc2)c(=O)c2oc3ccccc3c21` here?
The value was inactive: -10.7%.

Which Potency does the source give for `COc1ccccc1N1CCN(C(=O)c2ccc3[nH]c4c(c3c2)CC(C)CC4)CC1` (centres undefined) here?
Its Potency is inconclusive: 29.1 µM [falling, single point].

With `CN(Cc1ccccc1)S(=O)(=O)c1ccc(C(=O)Nc2nnc(C3CC3)o2)cc1` as the molecule, how does the Potency read?
Its Potency is inconclusive: 20.6 µM [falling, partial curve, poor fit].

With `O=C(C1CCCC1)N1CCC(CC2CC(c3cccc(Br)c3)=NO2)(C(=O)NCC2CCCCC2)CC1` (centres undefined) as the molecule, how does the Potency read?
The Potency was inconclusive: 29.1 µM [falling, single point].

With `COc1ccc(CCNc2c3ccccc3nc3ccccc23)cc1OC` as the molecule, how does the Potency read?
The Potency was inconclusive: 29.1 µM [falling, single point].

Which Potency does the source give for `COc1ccccc1-n1c(SCC(=O)NCc2ccc3c(c2)OCO3)nc2cc([N+](=O)[O-])ccc21` here?
Its Potency is inconclusive: 29.1 µM [falling, single point].

Which Potency does the source give for `O=C(Nc1ccc(-c2noc(CCc3ccccc3)n2)cc1)c1ccco1` here?
Its Potency is inconclusive: 6.51 µM [activator, single point].

With `O=C(N[C@@H](CO)C(=O)NCc1ccccc1)c1ccc(C(F)(F)F)cc1` as the molecule, how does the “activity change, negative = inhibition” value read?
The value was inactive: -2.66%.

For `CC(C)Nc1ccc(C(CC(N)=O)NC(=O)c2ccc(Br)cc2)cc1[N+](=O)[O-]` (centres undefined), which Potency is on record?
The Potency was inconclusive: 13 µM [falling, partial curve].

Which Potency does the source give for `O=C(CN1C(=O)C(=O)N(Cc2ccccc2)C1=O)Nc1cc(Cl)cc(Cl)c1` here?
The Potency was inconclusive: 6.51 µM [activator, partial curve, poor fit].

With `CCOc1ccc(NC(=O)CSc2nc(=O)n(Cc3ccccn3)c3c2CCC3)cc1` as the molecule, how does the Potency read?
Its Potency is inconclusive: 29.1 µM [falling, single point].

With `CCc1ccc(NC(=O)CCCN2C(=O)C3CC=CCC3C2=O)cc1` (centres undefined) as the molecule, how does the Potency read?
The Potency was inconclusive: 23.1 µM [activator, partial curve, poor fit].

For `COc1ccc(C(N)=S)c(OC)c1`, which Potency is on record?
Its Potency is inconclusive: 14.6 µM [activator, partial curve, poor fit].

Which Potency does the source give for `O=Cc1cn(CC(=O)N2CCCCC2)c2ccccc12` here?
The Potency was inconclusive: 32.6 µM [activator, partial curve, poor fit].

With `O=C(COC(=O)c1cccnc1Cl)NCc1cccs1` as the molecule, how does the Potency read?
Its Potency is inconclusive: 3.66 µM [activator, partial curve, poor fit].

With `Cc1cccc(NC(=S)NCc2ccc3[nH]c4c(c3c2)CCCC4)c1` as the molecule, how does the Potency read?
The Potency was inconclusive: 29.1 µM [falling, single point].

With `CC(C)(C)OC(=O)C[C@@H]1C/C=C\C[C@@H](CC(=O)N(CCO)Cc2ccccc2)C(=O)N[C@@H](c2ccccc2)COC1=O` as the molecule, how does the “activity change, negative = inhibition” value read?
The value was inactive: -12%.
